# PubChem BioAssay AID1259254 – NCATS | 2017
# Aim: 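Genome-wide screen for genes that prevent DNA re-replication in cancer cells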 (primary screen)
# System: human HCT116 colorectal cancer cells
# Reagent: single siRNA against human genes
# Duration: 3 days
# Measured: 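Nuclei stained with Hoechst and imaged; cell-cycle phase assigned by DNA content; G2 share scaled per plate, non-targeting siRNA 0%, GMNN siRNA 100%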
# Direction: G2 robust z-score and G2 cells, % of GMNN control: higher = more G2 cells, more excess DNA replication; raw share of cells in G2: higher = larger share of cells with G2 DNA content
# Hit rule: 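An siRNA counts as active if its G2 robust z-score lies at least 5 MADs above the screen median; here such calls match roughly 38% of GMNN control or more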
# In all, the deposit lists about 59,000 reagents; this is an unselected part. About 1,550 of them (2.6%) count as active. 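G2 share is only a proxy for re-replication; each gene was hit by three separate siRNAs, and active genes were retested.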 Raw values are not corrected between plates. Reagents against one gene are numbered here. Not stated in the record: the amount of reagent.
target,siRNA no.,G2 robust z-score,"G2 cells, % of GMNN control",raw share of cells in G2 (%),call
PTAFR (GeneID 5724),1,2.84,23,14.1,inactive
PTAFR (GeneID 5724),2,1.64,14.5,7.71,inactive
PTAFR (GeneID 5724),3,0.657,7.59,7.17,inactive
TACSTD2 (GeneID 4070),1,2.8,22.6,10.7,inactive
TACSTD2 (GeneID 4070),2,-0.0213,2.82,6.45,inactive
TACSTD2 (GeneID 4070),3,-0.514,-0.649,5.21,inactive
FAM20A (GeneID 54757),1,-0.809,-2.72,2.63,inactive
FAM20A (GeneID 54757),2,-0.189,1.64,4.96,inactive
FAM20A (GeneID 54757),3,0.618,7.32,5.61,inactive
DOCK8 (GeneID 81704),1,-0.633,-1.49,4.81,inactive
DOCK8 (GeneID 81704),2,-0.718,-2.08,3.44,inactive
DOCK8 (GeneID 81704),3,1.49,13.4,9.77,inactive
TRIM54 (GeneID 57159),1,-0.143,1.96,7.29,inactive
TRIM54 (GeneID 57159),2,-0.944,-3.67,3.12,inactive
TRIM54 (GeneID 57159),3,0.714,7.99,7.66,inactive
TXNRD3 (GeneID 114112),1,-0.971,-3.86,3.02,inactive
TXNRD3 (GeneID 114112),2,1.91,16.4,12,inactive
TXNRD3 (GeneID 114112),3,-1.55,-7.96,1.98,inactive
TXNRD3 (GeneID 114112),4,-0.992,-4.01,2.26,inactive
TXNRD3 (GeneID 114112),5,0.154,4.05,4.73,inactive
TXNRD3 (GeneID 114112),6,1.62,14.4,7.61,inactive
PRRX1 (GeneID 5396),1,-0.777,-2.5,4.12,inactive
PRRX1 (GeneID 5396),2,0.107,3.72,6.1,inactive
PRRX1 (GeneID 5396),3,-0.0309,2.75,5.06,inactive
PI4KB (GeneID 5298),1,-0.337,0.595,5.8,inactive
PI4KB (GeneID 5298),2,0.744,8.2,6.91,inactive
PI4KB (GeneID 5298),3,0.346,5.4,7.23,inactive
EDEM2 (GeneID 55741),1,8.6,63.5,34.2,active
EDEM2 (GeneID 55741),2,0.618,7.32,7.06,inactive
EDEM2 (GeneID 55741),3,2.82,22.8,13.9,inactive
FLAD1 (GeneID 80308),1,2.63,21.5,14.4,inactive
FLAD1 (GeneID 80308),2,0.0616,3.4,5.43,inactive
FLAD1 (GeneID 80308),3,-0.937,-3.63,3.44,inactive

Laid out differently: 3 of the entries above
target	siRNA no.	G2 robust z-score	G2 cells, % of GMNN control	raw share of cells in G2 (%)	call
TXNRD3 (GeneID 114112)	6	1.62	14.4	7.61	inactive
PRRX1 (GeneID 5396)	1	-0.777	-2.5	4.12	inactive
PRRX1 (GeneID 5396)	2	0.107	3.72	6.1	inactive

The list goes on.
target,siRNA no.,G2 robust z-score,"G2 cells, % of GMNN control",raw share of cells in G2 (%),call
STK25 (GeneID 10494),1,1.04,10.3,8.8,inactive
STK25 (GeneID 10494),2,0.325,5.26,7.1,inactive
STK25 (GeneID 10494),3,0.149,4.01,4.97,inactive
TIMP4 (GeneID 7079),1,-0.366,0.393,4.53,inactive
TIMP4 (GeneID 7079),2,-0.166,1.8,5.39,inactive
TIMP4 (GeneID 7079),3,3.34,26.5,14.9,inactive
EIF2B5 (GeneID 8893),1,-1.52,-7.75,2.54,inactive
EIF2B5 (GeneID 8893),2,2.09,17.6,12.6,inactive
EIF2B5 (GeneID 8893),3,1.5,13.5,9.54,inactive
TMEM87B (GeneID 84910),1,-0.113,2.17,6.68,inactive
TMEM87B (GeneID 84910),2,-0.713,-2.05,4.09,inactive
TMEM87B (GeneID 84910),3,0.873,9.11,7.92,inactive
TMEM126A (GeneID 84233),1,-0.515,-0.655,3.89,inactive
TMEM126A (GeneID 84233),2,0.419,5.92,5.21,inactive
TMEM126A (GeneID 84233),3,-0.399,0.159,2.45,inactive
MNS1 (GeneID 55329),1,-0.319,0.72,4.8,inactive
MNS1 (GeneID 55329),2,0.327,5.27,6.32,inactive
MNS1 (GeneID 55329),3,1.35,12.5,7.12,inactive
GGT6 (GeneID 124975),1,-0.238,1.29,4.61,inactive
GGT6 (GeneID 124975),2,1.99,17,8.38,inactive
GGT6 (GeneID 124975),3,-0.817,-2.78,1.01,inactive
NUP188 (GeneID 23511),1,-1.27,-5.97,2.17,inactive
NUP188 (GeneID 23511),2,0.223,4.53,5.9,inactive
NUP188 (GeneID 23511),3,-0.477,-0.386,3.16,inactive
LYPD1 (GeneID 116372),1,-0.101,2.26,5.33,inactive
LYPD1 (GeneID 116372),2,-0.846,-2.99,3.68,inactive
LYPD1 (GeneID 116372),3,-1.08,-4.61,3.53,inactive
SHISA6 (GeneID 388336),1,2.24,18.7,10.2,inactive
SHISA6 (GeneID 388336),2,-0.437,-0.11,3.36,inactive
SHISA6 (GeneID 388336),3,0.186,4.28,6.47,inactive
OGA (GeneID 10724),1,-1.3,-6.2,2.55,inactive
OGA (GeneID 10724),2,0.0781,3.52,5.59,inactive
OGA (GeneID 10724),3,1.1,10.7,7.19,inactive
ZFYVE21 (GeneID 79038),1,-0.576,-1.09,2.41,inactive
ZFYVE21 (GeneID 79038),2,-0.248,1.22,6.46,inactive
ZFYVE21 (GeneID 79038),3,-0.0392,2.69,4.48,inactive
